# Laboratory results: PubChem BioAssay AID540276 (National Center for Advancing Translational Sciences (NCATS), 2011)
# Values joined by “and” are separate entries in the source; they are usually repeats but may differ in a detail not shown here. Identical values can stand only once. Among all 300,000 compounds or so, about 5,400 (1.8%) were called active. Inconclusive means that the source gave no clear call. Such entries were picked first, then a sample of the others. Calls come from the whole dose curve; tested in HEK293 cells. Potencies beside an inconclusive call are fits to weak or partial responses and may not hold up.
# Assay: qHTS for inhibitors of binding or entry into cells for Marburg Virus
# Conditions: Marburg virus pseudotyped entry inhibition, cell reporter; activity change, negative = inhibition: at 37.8 µM (top of the series) unless noted
# % is set by controls: 0 for no effect and ±100 for the full control effect; potency is the fitted concentration of half-maximal effect.
Structure (SMILES),Potency,"activity change, negative = inhibition"
COc1cccc(CNC(=O)C(=O)NCCC2CCCCN2S(=O)(=O)c2cccs2)c1 (stereo unspecified),"inconclusive: 35.5 µM [inhibitor, partial curve, poor fit]",
CCc1ccccc1NC(=S)NC1CC2CCC(C1)N2Cc1ccco1 (stereo unspecified),"inconclusive: 18.3 µM [inhibitor, partial curve]",
O=C(O)c1ccc(S(=O)(=O)NCc2cccnc2)cc1,"inconclusive: 0.398 µM [inhibitor, single point]",
Cc1ccc(OCC(O)Cn2c(=N)n(Cc3ccccc3)c3ccccc32)cc1 (stereo unspecified),"inconclusive: 2.24 µM [inhibitor, partial curve, poor fit]",
CC(C)C1O/C(=N/C(=O)Nc2ccc(Cl)c(Cl)c2)NC1=O (stereo unspecified),,inactive: -6.44%
Cc1cccc(C)c1NC(=O)CNC(=O)C(C)NC(C)c1ccccc1Br (stereo unspecified),,inactive: -3.47%
CCCCCC(=O)Nc1ccc(-c2csc(C)n2)cc1,,inactive: -1.96%
CCOc1ccc2nc(NCCNC(=S)NCCCN(C)C)c(C#N)cc2c1,"inconclusive: 15.8 µM [inhibitor, single point]",
C/C(=N\Nc1ccc(F)cc1F)c1ccc(F)cc1,,inactive: 0.389%
Cn1c(=O)c(=O)n(C)c2cc(S(=O)(=O)N3CCN(Cc4ccccc4)CC3)ccc21,"inconclusive: 3.55 µM [inhibitor, single point]",
CC(C)[C@H](NC(=O)c1ccco1)C(=O)OCC(=O)N1CCc2ccccc21,,inactive: 0.811%
COc1cc(/C=C/C(=O)OCC(=O)NCc2ccc3c(c2)OCO3)cc(OC)c1OC,"inconclusive: 11.2 µM [inhibitor, single point]",
O=C(COC(=O)c1ccc(F)cc1)Nc1ccccc1N1CCOCC1,"inconclusive: 12.6 µM [activator, partial curve]",
CN(C)CCn1c(=O)n(-c2ccc(F)cc2)c(=O)c2c3c(sc21)CCCCC3,"inconclusive: 11.2 µM [inhibitor, partial curve, poor fit]",
COc1ccccc1CNC(=O)/C=C/c1ccc(Br)o1,,inactive: 18.2%
O=C(COc1ccc(S(=O)(=O)N2CCOCC2)cc1)N1CCCCCC1,,inactive: 27.3% [at 46.1 µM]
COc1ccc(NC(=S)N2N=CCC2c2ccccc2)cc1 (stereo unspecified),"inconclusive: 1.16 µM [activator, single point]",
Cc1ccc(/C=N/c2sc3c(c2C#N)CCC3)o1,"inconclusive: 7.94 µM [activator, partial curve, poor fit]",
Cc1cc(NC(=O)Cc2ccc(Br)cc2)no1,,inactive: 12.2%
COc1cc(OC)c(NC(=O)c2cn(C)c(=O)c3cc(OC)c(OC)cc23)cc1Cl,,inactive: -0.0126% [at 46.1 µM]
CCn1c(SCC(=O)c2ccccc2)nnc1-c1cnccn1,"inconclusive: 6.51 µM [activator, partial curve, poor fit]",
O=C(NCCN1CCOCC1)NC1(C(F)(F)F)Oc2ccccc2O1,"inconclusive: 9.2 µM [inhibitor, partial curve, poor fit]",
O=c1c2ccccc2nc2n1CCc1c-2[nH]c2ccccc12,"inconclusive: 1.16 µM [activator, partial curve] and inconclusive: 22.4 nM [activator, full curve]",

Structure (SMILES),Potency,"activity change, negative = inhibition"
Cc1ccc(-n2[nH]c(C)c(/C=C3/C=Nc4ccccc43)c2=O)cc1C,"inconclusive: 2.82 µM [inhibitor, full curve]",
CCN(CC)C(=O)CSc1nnc(-c2ccco2)n1Cc1ccco1,,inactive: 1.89%
O=C(C1=C(C(=O)N(C2CCCCC2)C2CCCCC2)CCCC1)N1CCCCC1,,inactive: -9.32%
CSCC[C@H](NC(=O)OC(C)(C)C)C(=O)N/N=C/c1ccc2nccnc2c1,active: 3.16 µM,
COC(=O)c1[nH]c2ccc(Cl)cc2c1NC(=O)CN1CCc2cc(OC)c(OC)cc2C1,"inconclusive: 35.5 µM [inhibitor, single point]",
O=C(CSc1nc2cc(Cl)ccc2o1)Nc1ccc(N2CCOCC2)cc1,"inconclusive: 16.4 µM [activator, single point]",
CC(C)Oc1ccc(C(=O)Nc2nc3c(s2)CC(C(C)(C)C)CC3)cc1 (stereo unspecified),,inactive: 9.95% [at 46.1 µM]
COc1cc(S(=O)(=O)n2cnc(C)c2)ccc1Br,"inconclusive: 11.2 µM [inhibitor, partial curve, poor fit]",
O=C(O)CCCNC(=O)/C(=C\c1ccccc1F)NC(=O)c1ccccc1,"inconclusive: 2.24 µM [activator, full curve]",
COc1ccc(OC)c(-n2c(O)c(/C=C3\C=Nc4ccccc43)c(=O)[nH]c2=O)c1,"inconclusive: 35.5 µM [inhibitor, single point]",
O=C(CSc1nnc(CNC(=O)c2cccs2)o1)Nc1ccc(Br)cc1,,inactive: 3.1% [at 46.1 µM]
C=C(C)CN=C1NN=C(c2cc(C)n(-c3ccc(C)cc3)c2C)CS1,,inactive: -4.04%
O=C(c1ccc(Cl)c(Cl)c1)N1CCC(=O)N(C(COCc2cccc(C(F)(F)F)c2)Cc2ccccc2)CC1 (stereo unspecified),"inconclusive: 25.9 µM [inhibitor, single point]",
Cc1ccc(-n2ncc3c(SCc4cccc(C)c4)ncnc32)cc1,"inconclusive: 7.08 µM [activator, partial curve, poor fit]",
CCCS/C(N)=N/N=C/c1cc(C)ccc1O,"inconclusive: 0.631 µM [activator, single point]",
Cc1ccc(S(=O)(=O)N2CCn3cccc3C2C)cc1 (stereo unspecified),"inconclusive: 5.62 µM [activator, single point]",
Cc1cc(Nc2ccc(Cl)cc2)nc(N2CCOCC2)n1,active: 7.94 µM,
c1ccc(CSc2nnc(-c3ccncc3)o2)cc1,"inconclusive: 16.4 µM [activator, partial curve]",
CCc1c(C)nc2ncnn2c1Nc1ccc(C(C)=O)cc1,"inconclusive: 12.6 µM [inhibitor, single point]",
O=c1c2ccccc2cnn1CCOc1ccccc1,active: 2.06 µM,
Cc1[nH]n2c(=O)cc(Cc3ccccc3)nc2c1C#N,,inactive: 3.4%
COc1ccc(CNC(=O)c2ccc3c(c2)N(Cc2ccccc2)CCS3)cc1,"inconclusive: 2.51 µM [inhibitor, full curve, poor fit]",
Clc1ccc(CN2C3=NCCN3c3ccccc32)cc1Cl,"inconclusive: 29.1 µM [inhibitor, single point]",
